# Patent US20030139438A1, “Diagnosis of the parkinsonian condition” (priority 2001, published 2003)
# Test system: effects of met-enkephalin
# Test: Naloxone diagnostic test in subject with pre-symptomatic Parkinson's disease (UPDRS Part III)
# Assay type: in vivo, human
# Details: single subcutaneous injection, 10-100 mg
structure (smiles),measurement,value
C=CCN1CC[C@]23c4c5ccc(O)c4O[C@H]2C(=O)CC[C@@]3(O)[C@H]1C5 [naloxone],time until symptoms subside after injection,≤ 20 min
